According to PubChem BioAssay AID222 (DTP/NCI, 2004):
The list does not hold the whole screen: it gathers tests that were run many times, whatever their T/C, doses with no T/C, and many T/C values between a quarter and a half above the control. Other doses and runs of a compound stand elsewhere. T/C: endpoint of the treated group in % of that of the vehicle group. Some entries give survivors of the animals treated and no T/C: the source files T/C as zero there, which appears to mark a toxic dose or a test without result, not a measured value. Some doses without a T/C left all or most animals alive at the check, yet need not have been tolerated: survival well below the control is almost never listed, so the zero probably covers shortened survival too. Counts of survivors are from the toxicity check (mostly the fifth day) where no day follows; animals may have died later. Schedule codes are those of the source, taken here to give the interval after Q, in days (D) or hours (H), and the number of doses after X. Some entries hold several experiments; the results are listed from low to high. Counts like (3×) say how often a value occurs here. For survival time, this PubChem deposit counts one and a half times the control or more as active, and values a quarter to a half above the control carry no call in these data; other NCI protocols may use other cut-offs. Some T/C values are followed by the survivors on the day toxicity was checked, most often the fifth; without a count, all were alive then.

Test system: C57BL/6 mice, intracerebral ependymoblastoma, median survival T/C
Test: NCI In Vivo Anticancer Drug Screen. Data for tumor model Ependymoblastoma (intracerebral) in C57BL/6 mice
Conditions: T/C endpoint: median survival time, higher T/C = longer survival
Procedure: The antitumor activity of compounds was measured in mice bearing transplantable tumors. Survival or tumor size were measured and the results are expressed as the measurement made in the treated group (T) divided by the measurement made in the vehicle treated control group (C). The tumor model used in this assay is Ependymoblastoma (intracerebral) in C57BL/6 mice

[1] = dose: 6.0 mg/kg/injection, schedule: Q01DX005 (ip), vehicle: saline
[2] = dose: 64.0 mg/kg/injection, schedule: Q01DX005 (ip), vehicle: saline
[3] = dose: 128.0 mg/kg/injection, schedule: Q01DX005 (ip), vehicle: saline
[4] = dose: 8.0 mg/kg/injection, schedule: Q01DX005 (ip), vehicle: saline
[5] = dose: 16.0 mg/kg/injection, schedule: Q01DX005 (ip), vehicle: saline

NC(C/[N+]([O-])=N/O)C(=O)O (stereo not drawn)
survivor count (dose: 16.0 mg/kg/injection, schedule: Q01DX005 (ip), vehicle: saline with Tween-80): 9 of 10
T/C (dose: 28.0 mg/kg/injection, schedule: Q01DX005 (ip), vehicle: saline): 125 % of control
survivor count (dose: 32.0 mg/kg/injection, schedule: Q01DX005 (ip), vehicle: saline with Tween-80): 10 of 10
survivor count (dose: 64.0 mg/kg/injection, schedule: Q01DX005 (ip), vehicle: saline with Tween-80): 9 of 10
survivor count (dose: 100.0 mg/kg/injection, schedule: Q01DX009 (ip), vehicle: Klucel (hydroxypropylcellulose) (HPC)): 6 of 10
survivor count (dose: 112.0 mg/kg/injection, schedule: Q01DX005 (ip), vehicle: saline): 8 of 10
survivor count (dose: 112.5 mg/kg/injection, schedule: Q01DX005 (ip), vehicle: saline): 3 of 10 and 6 of 10
survivor count (dose: 128.0 mg/kg/injection, schedule: Q01DX005 (ip), vehicle: saline with Tween-80): 9 of 10
survivor count (dose: 200.0 mg/kg/injection, schedule: Q01DX009 (ip), vehicle: Klucel (hydroxypropylcellulose) (HPC)): 8 of 10
survivor count (dose: 225.0 mg/kg/injection, schedule: Q01DX005 (ip), vehicle: saline): 1 of 10 and 2 of 10
survivor count (dose: 256.0 mg/kg/injection, schedule: Q01DX005 (ip), vehicle: saline with Tween-80): 6 of 10
survivor count (dose: 400.0 mg/kg/injection, schedule: Q01DX009 (ip), vehicle: Klucel (hydroxypropylcellulose) (HPC)): 0 of 10
survivor count (dose: 450.0 mg/kg/injection, schedule: Q01DX005 (ip), vehicle: saline): 2 of 10 and 3 of 10
survivor count (dose: 800.0 mg/kg/injection, schedule: Q01DX009 (ip), vehicle: Klucel (hydroxypropylcellulose) (HPC)): 0 of 10
survivor count (dose: 900.0 mg/kg/injection, schedule: Q01DX005 (ip), vehicle: saline): 0 of 10
survivor count (dose: 1800.0 mg/kg/injection, schedule: Q01DX005 (ip), vehicle: saline): 1 of 10

O=c1ccn(C2OC(CO)C(O)C2O)c(=O)[nH]1 (stereo not drawn)
survivor count (dose: 1024.0 mg/kg/injection, schedule: Q01DX005 (ip), vehicle: saline): 10 of 10

O=c1cnn(C2OC(CO)C(O)C2O)c(=O)[nH]1 (stereo not drawn)
survivor count (dose: 250.0 mg/kg/injection, schedule: Q01DX005 (ip), vehicle: saline): 1 of 6
survivor count (dose: 2000.0 mg/kg/injection, schedule: Q01DX005 (ip), vehicle: saline): 6 of 6

Nc1ncn(C2OC(CO)C(O)C2O)c(=O)n1 (stereo not drawn)
T/C (dose: 0.75 mg/kg/injection, schedule: Q01DX005 (ip), vehicle: saline): 108 (2×), 114, 125 % of control
T/C (dose: 1.5 mg/kg/injection, schedule: Q01DX005 (ip), vehicle: saline): 101, 115 (2×), 132 % of control [9 of 10 alive]
T/C (dose: 3.0 mg/kg/injection, schedule: Q01DX005 (ip), vehicle: saline): 102, 106, 114, 126 % of control
T/C [1]: 122 and 129 % of control
survivor count [1]: 10 of 10

C[CH2][Ge]1([CH2]C)[CH2]CC2(CCN(CCCN(C)C)C2)C[CH2]1
T/C (dose: 16.0 mg/kg/injection, schedule: Q01DX005 (ip), vehicle: saline, evaluated on day 45): 96 % of control
T/C (dose: 16.0 mg/kg/injection, schedule: Q01DX005 (ip), vehicle: saline, evaluated on day 60): 95 [9 of 10 alive], 97, 102 % of control
T/C (dose: 32.0 mg/kg/injection, schedule: Q01DX005 (ip), vehicle: saline, evaluated on day 45): 96 % of control [9 of 10 alive]
T/C (dose: 32.0 mg/kg/injection, schedule: Q01DX005 (ip), vehicle: saline, evaluated on day 60): 95, 96, 97 [9 of 10 alive], 105, 113, 118 % of control
T/C (dose: 64.0 mg/kg/injection, schedule: Q01DX005 (ip), vehicle: saline, evaluated on day 45): 109 % of control
T/C (dose: 64.0 mg/kg/injection, schedule: Q01DX005 (ip), vehicle: saline, evaluated on day 60): 93 [9 of 10 alive], 102, 103, 122 % of control
survivor count [2]: 2 of 10 and 8 of 10
survivor count [3]: 0 of 10 (2×), 1 of 10, 3 of 10
survivor count (dose: 256.0 mg/kg/injection, schedule: Q01DX005 (ip), vehicle: saline): 0 of 10
survivor count (dose: 512.0 mg/kg/injection, schedule: Q01DX005 (ip), vehicle: saline): 0 of 10

C1CN1c1nc(N2CC2)nc(N2CC2)n1
T/C (dose: 0.5 mg/kg/injection, schedule: Q01DX005 (ip), vehicle: saline): 139 % of control
survivor count (dose: 1.0 mg/kg/injection, schedule: Q01DX005 (ip), vehicle: saline): 9 of 10
survivor count (dose: 2.0 mg/kg/injection, schedule: Q01DX005 (ip), vehicle: saline): 8 of 10

O=C1NC2(CCCCC2)C(=O)N1CCN(CCCl)CCCl
T/C (dose: 4.0 mg/kg/injection, schedule: Q01DX005 (ip), vehicle: saline, evaluated on day 45): 99 % of control
T/C (dose: 4.0 mg/kg/injection, schedule: Q01DX005 (ip), vehicle: saline, evaluated on day 60): 93, 100, 105 % of control
survivor count (dose: 6.0 mg/kg/injection, schedule: Q01DX009 (ip), vehicle: Klucel (hydroxypropylcellulose) (HPC)): 6 of 6
survivor count (dose: 8.0 mg/kg/injection, schedule: Q01DX005 (ip), vehicle: Klucel (hydroxypropylcellulose) (HPC)): 10 of 10
T/C [4]: 94 [9 of 10 alive], 101 [9 of 10 alive], 102 % of control
survivor count [4]: 10 of 10
survivor count (dose: 12.0 mg/kg/injection, schedule: Q01DX009 (ip), vehicle: Klucel (hydroxypropylcellulose) (HPC)): 6 of 6
survivor count (dose: 16.0 mg/kg/injection, schedule: Q01DX005 (ip), vehicle: Klucel (hydroxypropylcellulose) (HPC)): 8 of 10
T/C [5]: 86 [9 of 10 alive], 98, 115 % of control
survivor count [5]: 8 of 10
survivor count (dose: 25.0 mg/kg/injection, schedule: Q01DX005 (ip), vehicle: Klucel (hydroxypropylcellulose) (HPC)): 8 of 10
survivor count (dose: 32.0 mg/kg/injection, schedule: Q01DX005 (ip), vehicle: Klucel (hydroxypropylcellulose) (HPC)): 0 of 10, 2 of 10, 10 of 10
survivor count (dose: 32.0 mg/kg/injection, schedule: Q01DX005 (ip), vehicle: saline): 5 of 10 and 8 of 10
survivor count (dose: 50.0 mg/kg/injection, schedule: Q01DX005 (ip), vehicle: Klucel (hydroxypropylcellulose) (HPC)): 1 of 10
survivor count (dose: 64.0 mg/kg/injection, schedule: Q01DX005 (ip), vehicle: Klucel (hydroxypropylcellulose) (HPC)): 0 of 10
survivor count [2]: 0 of 10 and 6 of 10
survivor count (dose: 100.0 mg/kg/injection, schedule: Q01DX005 (ip), vehicle: Klucel (hydroxypropylcellulose) (HPC)): 0 of 10
survivor count [3]: 0 of 10 (2×)

Nc1ncnc2c1ncn2C1OC(COP(=O)(O)O)C(O)C1O (stereo not drawn)
survivor count (dose: 400.0 mg/kg/injection, schedule: Q01DX005 (ip), vehicle: saline): 7 of 10
T/C (dose: 1600.0 mg/kg/injection, schedule: Q01DX005 (ip), vehicle: saline): 126 % of control [7 of 10 alive]

O=P1(NCCCl)OCCC(OO)N1CCCl (stereo not drawn)
survivor count (dose: 320.0 mg/kg/injection, schedule: Q01DX001 (ip), vehicle: Klucel (hydroxypropylcellulose) (HPC)): 3 of 6

CC(=O)OC(C1CO1)C(OC(C)=O)C1CO1 (stereo not drawn)
survivor count (dose: 20.0 mg/kg/injection, schedule: Q01DX005 (ip), vehicle: saline): 10 of 10
survivor count (dose: 24.0 mg/kg/injection, schedule: Q01DX005 (ip), vehicle: saline): 1 of 7
survivor count (dose: 28.0 mg/kg/injection, schedule: Q01DX005 (oral), vehicle: saline): 3 of 7

Nc1nc(=S)c2ncn(C3OC(COC(=O)c4ccc(Cl)cc4)C(OC(=O)c4ccc(Cl)cc4)C3OC(=O)c3ccc(Cl)cc3)c2[nH]1 (stereo not drawn)
survivor count (dose: 75.0 mg/kg/injection, schedule: Q01DX005 (ip), vehicle: Klucel (hydroxypropylcellulose) (HPC)): 9 of 10
survivor count (dose: 150.0 mg/kg/injection, schedule: Q01DX005 (ip), vehicle: Klucel (hydroxypropylcellulose) (HPC)): 10 of 10
